Common to all, as to format: cell-based
Experiment [1] deals with MCF-10A human normal breast cell lines. The experiment is described as follows: MTT proliferation (cytotoxicity) assay on MCF-10A normal cells. The text has this: (§1) MCF-7 and MDA-MB-231 human breast cancer cell lines, as well as MCF-10A human normal breast cell lines, were used in this study. These cells were acquired from the American Type Culture Collection (Manassas, VA, USA). MCF-7 and MDAMB-231 cells were regularly cultured in Dulbecco’s Modified Eagle’s Medium (DMEM; Gibco, Waltham, MA, USA), and supplemented with 10% (v/v) foetal bovine serum (FBS; Gibco, Waltham, MA, USA) and 100 U/mL penicillin-streptomycin (PenStrep; Gibco, Waltham, MA, USA). MCF-10A cells were routinely cultured in DMEM/F12 (Gibco, Waltham, MA, USA) medium supplemented with 5% horse serum (Sigma-Aldrich, Burlington, MA, USA), 10 μg/mL of insulin (Sigma-Aldrich, Burlington, MA, USA), 20 ng/mL of human epidermal growth factor (hEGF; ThermoFisher, Waltham, MA, USA), 0.5 μg/mL of hydrocortisone (Sigma-Aldrich, Burlington, MA, USA) and 1 U/mL PenStrep. All cell lines were maintained in a humidified atmosphere with 5% CO2 at 37 °C.
(§2) The effects of the N-(2-cinnamylphenyl)amide products (i.e., isolated pure isomers) on MCF-7, MDA-MB-231 and MCF-10A were determined using a 3-(4,5-dimethylthiazol-2-yl)-2,5-diphenyltetrazolium bromide (MTT) proliferation assay. The cell lines were seeded in 96-well plates at a density of 1 × 10^4 cells/well and allowed to grow overnight for cell attachment. […] The optical density (O.D.) of each well was measured using a microplate reader (PowerWave-XS; Bio-Tek Instruments, Winooski, Vermont, USA) at 570 nm. […]
(§3) The selectivity index (SI) was used to indicate the cytotoxic selectivity of the samples against cancer cells and normal cells. It was calculated from the IC50 of the samples in normal cells versus cancer cells. […] All data were analysed and presented as means standard deviation (±SD). Comparisons between each concentration of 18 samples were evaluated using Student’s t-test, where p < 0.05, p < 0.01 or p < 0.001 were considered as statistically significant relative to the untreated control cells.

The test system of experiment [2] is MDA-MB-231 human breast cancer cell lines. Nature of the experiment: MTT proliferation (cytotoxicity) assay on MDA-MB-231 cells. The conditions noted are these: 48 h incubation.
From the text: MCF-7 and MDA-MB-231 human breast cancer cell lines, as well as MCF-10A human normal breast cell lines, were used in this study. These cells were acquired from the American Type Culture Collection (Manassas, VA, USA). MCF-7 and MDAMB-231 cells were regularly cultured in Dulbecco’s Modified Eagle’s Medium (DMEM; Gibco, Waltham, MA, USA), and supplemented with 10% (v/v) foetal bovine serum (FBS; Gibco, Waltham, MA, USA) and 100 U/mL penicillin-streptomycin (PenStrep; Gibco, Waltham, MA, USA). […]
The effects of the N-(2-cinnamylphenyl)amide products (i.e., isolated pure isomers) on MCF-7, MDA-MB-231 and MCF-10A were determined using a 3-(4,5-dimethylthiazol-2-yl)-2,5-diphenyltetrazolium bromide (MTT) proliferation assay. […] The optical density (O.D.) of each well was measured using a microplate reader (PowerWave-XS; Bio-Tek Instruments, Winooski, Vermont, USA) at 570 nm. […]
as §3

Experiment [3] has as its system MCF-7 human breast cancer cell lines. The experiment is described as follows: MTT proliferation (cytotoxicity) assay on MCF-7 cells.
From the text: as §1, §2, §3

These results are taken from paper PMC9457622, “Synthesis of Bio-Inspired 1,3-Diarylpropene Derivatives via Heck Cross-Coupling and Cytotoxic Evaluation on Breast Cancer Cells” (Molecules, 2022).

The term IC50 denotes the concentration that gives 50% inhibition. A higher IC50 goes with a need for much substance.

`CC/C(=C(\c1ccccc1)c1ccc(OCCN(C)C)cc1)c1ccccc1` [Tamoxifen, reference compound]: the IC50 worked out at 3.24 ± 0.01 µM in experiment [1] (24 h incubation); 3.33 ± 0.02 µM in experiment [1] (48 h incubation); 4.07 ± 0.09 µM in experiment [1] (72 h incubation); 15.9 ± 0.73 µM in experiment [2]; 16.2 ± 0.37 µM in experiment [3] (MCF7, 24 h incubation); 15.4 ± 1.42 µM in experiment [3] (MCF7, 48 h incubation). The midpoint of inhibition in experiment [3] (MCF7, 72 h incubation), the IC50, lay at 15.78 ± 0.1 µM.
